# Test results reported in PubChem BioAssay AID493014 (National Center for Advancing Translational Sciences (NCATS), 2011).
# The whole screen tested about 340,000 compounds, of which about 170 (0.05%) were called active. The shares of active, inactive and inconclusive entries below differ from those in the screen. Calls come from the whole dose curve; as a rule, active = well fitted inhibition curve with a large enough effect in the signal ratio, with a control signal flat (not every such curve was filed as active); inconclusive = small, poorly fitted or top-dose-only effect, or effect the other way, or a change in a side signal; inactive = flat fitted curve, though single readings scatter; the % refers to the signal ratio. Potencies of inconclusive entries are doubtful fits and often do not repeat.
# Assay: qHTS Assay to Find Inhibitors of Chronic Active B-Cell Receptor Signaling;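 for activity change, negative = inhibition: plate controls were basal doxycycline-induced cells for no effect and cells given 10 µM MG132 for full effect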
# Conditions: ABC-DLBCL IkBa-CBG/CBR reporter, luminescence ratio (green luciferase fused to IkBa over red control in TMD8 lymphoma cells), 4 h; activity change, negative = inhibition: at 46.1 µM (top of the series) unless noted
# In short: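 TMD8 human ABC-DLBCL cells with doxycycline-inducible IκBα–green luciferase fusion and unfused red luciferase, in 0.5% FBS medium; compounds up to 46 uM, 4 h at 37C. Green/red luminescence ratio, filter-overlap corrected, fitted to concentration-response curves.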
# Potency is the fitted concentration of half-maximal effect.
Compound,"activity change, negative = inhibition",Potency
CCC1CCCCN1CCCNC(=O)c1ccc2c(c1)c(C)c(C)n2CC (stereo not drawn),inactive: -6.3%,
CC(Cc1ccccc1)NC(=S)CN1CCCC1=S (stereo not drawn),inactive: 1.88%,
COc1cccc2sc(N(CCCN(C)C)C(=O)c3ccc(S(=O)(=O)N4CCc5ccccc5C4)cc3)nc12,inconclusive: 6.21%,
Nc1c(C(=O)N/N=C/c2cccnc2)cnn1-c1ccccc1,inconclusive: -0.288%,
CC(=NC1CCCC1)c1c(C)[nH]n(-c2nc3ccccc3s2)c1=O,inconclusive: 1.64%,
c1ccc(CC2CCN(C3=Nc4cccc5cccc3c45)CC2)cc1,inconclusive: 6.02%,
COc1cc(CNc2ccc(O)cc2)cc(Br)c1OCc1ccccc1,inconclusive: -3.43%,
COc1ccc(-c2cc(C(=O)NN)[nH]n2)cc1OC,,"inconclusive: 17.8 µM [falling, partial curve]"
Cc1cc(C)cc(OCC(=O)O/N=C(\N)c2ccccc2Cl)c1,inconclusive: 7.35%,
C[C@@H](NC(=O)[C@@H]1Cc2ccccc2CN1)C(=O)NCC1CCCO1 (stereo partly drawn),inactive: 2.15%,
CCCCCC(=O)N/N=C(\C)c1ccc(N2CCCCC2)cc1,inconclusive: -4.35%,
Cc1ccc(C)c(NC(=O)c2ccccc2NS(=O)(=O)c2cc([N+](=O)[O-])ccc2C)c1,inconclusive: -1.22%,
CC(=O)N(c1ccc(Cl)cc1)c1nc(C)cc(C)c1C#N,inactive: -0.87%,
CCCCOC(=O)c1ccc(NC(=O)c2ocnc2C)cc1,inconclusive: -5.34%,
COc1ccc(NC(=O)CN(C)CC(=O)Nc2cccc(S(=O)(=O)N(C)c3ccccc3)c2)cc1,inconclusive: -8.92%,
COc1ccc2cc3cc(C(=O)NC(C)C)oc3nc2c1,,"inconclusive: 6.51 µM [falling, single point]"
COC(=O)c1ccc(-n2nnnc2SCC(=O)Nc2ccccc2OC)cc1,inconclusive: -28.8%,
Cc1ccc(OCc2ccc(C(=O)NN)o2)cc1C,,"inconclusive: 11.2 µM [falling, partial curve]"
CCCCCc1nc2c(=O)[nH]c3ccccc3c2o1,inconclusive: -4.34%,
COc1cc(OC)cc(C(=O)N[C@H](C(=O)Nc2nc(-c3ccc(OC)c(OC)c3)cs2)C(C)C)c1,,"inconclusive: 3.55 µM [falling, partial curve, poor fit]"
O=C(CCl)Nc1ccc(N2CCCCCC2)cc1,inactive: -16.4%,
CCN1CCCC1CNC(=O)C(=O)Nc1ccccc1 (stereo not drawn),,"inconclusive: 22.4 µM [falling, partial curve]"
O=C(CSc1nnc(-c2ccncc2)n1-c1ccc(Cl)cc1)N1CCOCC1,inconclusive: 12.1%,
COC(=O)Cc1[nH]nc2c1C(c1c[nH]c3ccccc13)C(C#N)=C(N)O2 (stereo not drawn),,"inconclusive: 17.8 µM [falling, partial curve, poor fit]"
COc1cccc(NC(=O)C(=O)NCc2ccncc2)c1,,"inconclusive: 22.4 µM [falling, partial curve]"
COc1ccc(-c2cn3ccsc3n2)cc1,inconclusive: -3.85%,
COc1cc(NC(=O)Cn2nc(-c3ccc(F)cc3)ccc2=O)ccc1-n1cnnn1,inconclusive: 6.64%,

# Entries above containing a Cl atom:
Compound,"activity change, negative = inhibition",Potency
Cc1cc(C)cc(OCC(=O)O/N=C(\N)c2ccccc2Cl)c1,inconclusive: 7.35%,
CC(=O)N(c1ccc(Cl)cc1)c1nc(C)cc(C)c1C#N,inactive: -0.87%,
O=C(CCl)Nc1ccc(N2CCCCCC2)cc1,inactive: -16.4%,
O=C(CSc1nnc(-c2ccncc2)n1-c1ccc(Cl)cc1)N1CCOCC1,inconclusive: 12.1%,

# The list goes on:

Compound,"activity change, negative = inhibition",Potency
COC(=O)c1nnc(-c2ccccc2)nc1OC,,"inconclusive: 18.4 µM [falling, single point]"
COc1ccc(NC(=O)Cn2nnc(C(=O)NCc3ccccc3)c2N)c(OC)c1,,"inconclusive: 11.2 µM [falling, partial curve, poor fit]"
COc1ccc(NC(=O)C2CCN(S(=O)(=O)c3ccc4c(c3)NC(=O)CO4)CC2)cc1,,"inconclusive: 35.5 µM [falling, single point]"
CCOC(=O)c1sc(NC(=O)c2sc(C)nc2C)nc1C,,"inconclusive: 0.631 µM [falling, full curve, poor fit]"
O=C(Nc1ccc(OC(F)F)c(Cl)c1)C(c1ccccc1)c1ccccc1,inconclusive: 28.7%,
CC(=O)c1cccc(NC(=O)Nc2ccc3c(c2)OCO3)c1,inactive: 4.75%,
COc1cc(/C=C2/C(=O)NN(c3ccccc3)C2=O)cc(Br)c1O,inconclusive: -11.7%,
Clc1ccc(SCCOCCN2CCOCC2)cc1,inactive: 0.211%,
CSc1ccccc1OCc1cc(C(=O)N(C)CCc2c(C)n[nH]c2C)no1,inconclusive: -22.7%,
NC(=O)c1ccc2nc(-c3ccccc3)c(-c3ccccc3)nc2c1,inconclusive: -2.08%,
COc1ccccc1-c1cn[nH]c1-c1ccc(OCc2ccc(F)cc2)cc1O,inconclusive: 11%,
CCN(CC)S(=O)(=O)c1cccc(NC(=O)CCNC(=O)c2ccc([N+](=O)[O-])cc2)c1,inconclusive: 5.79%,
CCN(CC)C(=O)CSc1nnc(-n2nc(C)cc2C)c2ccccc12,inconclusive: -3.31%,
O=S(=O)(NCCN1CCOCC1)c1cc(Cl)ccc1Cl,inactive: -0.0854%,
O=C(O)Cn1c(O)c(C2=c3ccccc3=NC2=O)sc1=O,,"inconclusive: 20 µM [falling, partial curve]"
O=C(NC(=S)NCCN1CCOCC1)c1ccc(Cl)cc1Cl,inactive: -1.64%,
Cc1ccc(N2CC(NC(=O)CCCc3ccccc3)CC2=O)cc1 (stereo not drawn),inactive: 1.02%,
CCN(CCCNC(=O)c1[nH]c(C)c(C(C)=O)c1C)c1ccccc1,inconclusive: -14.8%,
Cc1cc(NN)nc(NS(=O)(=O)c2ccccc2)n1,inconclusive: 15.5%,
O=C(/C=C/c1ccc(O)cc1)c1ccc(NC2=C(N3CCCCC3)C(=O)c3ccccc3C2=O)cc1,inconclusive: -22.6%,
CCOC(=O)c1c(C)c(C(=O)OCC)n(C)c1C,,"inconclusive: 11.2 µM [falling, partial curve]"
COCCNC(=S)N1CCc2cc(OC)c(OC)cc2C1c1cccs1 (stereo not drawn),inconclusive: -27.2%,
O=C(NCC(=O)N1CCN(c2ccccc2)CC1)c1ccc(Cl)cc1,inactive: -0.0448%,
Nc1ccc(NC(=O)CCN2CCOCC2)cc1,inactive: 1.31%,
CC(=O)NC(CC(=O)Nc1ccc(S(=O)(=O)N2CCCCC2)cc1)c1ccccc1 (stereo not drawn),inconclusive: 15.6%,
COC(=O)c1n[nH]n(-c2ccc(F)c(Cl)c2)c1=O,,"inconclusive: 17.8 µM [falling, partial curve]"
